# Results as given in PubChem BioAssay AID2685 (National Center for Advancing Translational Sciences (NCATS), 2010).
# Some of the results follow. The main result of the screen is listed elsewhere. These columns were measured beside it and carry no call. Most of these compounds were active or inconclusive in the main read-out, so they are no random draw. Potencies come from curve fits of mixed quality, noted in brackets.
# Test: qHTS Assay for Lipid Storage Modulators in Drosophila S3 Cells;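 for cell number change: cells counted by Cell Tracker Red CMTPX staining in the red channel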
# Conditions: BODIPY lipid droplet fluorescence, 18-24 h
# Procedure, shortened: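 Laser-scanning cytometry quantifies lipid droplet accumulation (500–530 nm total intensity; droplet/cell object ratio) in oleic acid-fed (400 uM added) Drosophila S3 cells treated with a concentration series. 20 uM Triacsin C defined 100% inhibition.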
structure (smiles),measurement,setting,value
O=C1NN(c2ccc(F)c(Cl)c2)C(=O)/C1=C\c1cccc(OC(=O)c2cccs2)c1,cell number change,"measured here: cell count max response, cells fed with added oleic acid",-17.8%
same,AC50,"measured here: cell number channel AC50, cells fed with added oleic acid","0.731 µM [falling, partial curve, poor fit]"
same,AC50,"measured here: lipid fluorescence (Fed channel) AC50, cells fed with added oleic acid","23.1 µM [falling, partial curve]"
